From publication PMC4016012, “Successful Conversion of the Bacillus subtilis BirA Group II Biotin Protein Ligase into a Group I Ligase” (PLoS ONE, 2014)

Target: T1, BirA (biotin protein ligase, Group II) (Bacillus subtilis 168) (UniProt P0CI75)
T1 sequence (looked up): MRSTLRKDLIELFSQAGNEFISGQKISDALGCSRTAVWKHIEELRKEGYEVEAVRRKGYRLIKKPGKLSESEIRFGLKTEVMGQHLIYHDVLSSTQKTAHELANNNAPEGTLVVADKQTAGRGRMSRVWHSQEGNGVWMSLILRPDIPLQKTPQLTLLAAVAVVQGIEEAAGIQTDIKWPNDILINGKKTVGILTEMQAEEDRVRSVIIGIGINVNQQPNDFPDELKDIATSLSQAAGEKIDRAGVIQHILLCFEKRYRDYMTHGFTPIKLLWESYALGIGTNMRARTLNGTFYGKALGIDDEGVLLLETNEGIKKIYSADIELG
Assay: EMSA
Settings: no biotin/ATP added, BirA not hydroxylamine-treated (carries Bio-5'-AMP), some interaction; 50 mM Tris-HCl pH 8.0, 1 mM EDTA, 50 mM NaCl, 10% glycerol, 40 nM DNA, 15.6-500 nM BirA, 1 mM ATP, 1 mM MgCl2, 1 uM biotin; room temperature 30 min; 6% gel in 0.5X TBE; recombinant protein; residues 1-325; probe letters rebuilt from the primers and the genome

Q: Does “CCTTTCACTGATAACTGAAGAACGTGTAGCGCTTCTCACCTAAATTGTTAACCAATTATATTCAAAGGTTAACAATTAGAATATATTATTCTCTCCTGTTTCTGTCAATAGAAGAAAGGATC (double strand) [B. subtilis bioO (bioWAFDBI operator)]” bind?
A: Result: binds more weakly

Construct, isoform or probe ends are uncertain for at least one entry. The comparison behind a weaker result is the experiment's own reference, which may not be listed here. Where a protein sequence is shown, tags need not be part of it.
